Data as given in patent publication US8119646B2, “Fungicide hydroximoyl-tetrazole derivatives” (Bayer CropScience AG, priority 2006, dated 2012).
Some results were stated once for a whole list of compounds, not compound by compound. At least one compound was matched to its structure with a doubt left.

What was measured:
Peronospora parasitica = assay: In vivo test on Peronospora parasitica (crucifer downy mildew) on cabbage plants; settings: dose of 500 ppm; cabbage plants sprayed preventively 24 hours before contamination; grading 5 days after contamination vs control plants
Pythium ultimum = assay: Cell test on Pythium ultimum (damping-off); type: cell-based; settings: dose of 6 ppm; OD measurement at 620 nm after 5 days at 20° C. in comparison with a control

## Cc1nnnn1/C(=N/OCc1cccc(N)n1)C1CCCCC1 [Compound 23, O-(2-Aminopyridin-6-yl)methyl-(5-methyltetrazol-1-yl)-cyclohexylmethanone oxime]
Peronospora parasitica
  good protection (at least 70%): at least 70%

## COc1ccc(C(=O)Nc2cccc(CON=C(C3CCCCC3)n3nnnc3C)n2)cc1 [Compound 24]
Peronospora parasitica
  good protection (at least 70%): at least 70%
Pythium ultimum
  good protection (at least 70%): at least 70%

## CCCCCC(=O)Nc1cccc(CO/N=C(\C2CCCCC2)n2nnnc2C)n1 [Compound 27, O-(2-n-Pentylcarbonylaminopyridin-6-yl)methyl-(5-methyltetrazol-1-yl)-cyclohexylmethanone oxime]
Peronospora parasitica
  good protection (at least 70%): at least 70%
Pythium ultimum
  good protection (at least 70%): at least 70%

## CCCCCOC(=O)Nc1cccc(CON=C(C2CCCCC2)n2nnnc2C)n1 [Compound 29]
Peronospora parasitica
  good protection (at least 70%): at least 70%
Pythium ultimum
  good protection (at least 70%): at least 70%

## Cc1nnnn1C(=NOCc1cccc(NC(=O)CCCc2ccccc2)n1)C1CCCCC1 [Compound 32]
Peronospora parasitica
  good protection (at least 70%): at least 70%
Pythium ultimum
  good protection (at least 70%): at least 70%
